In article PMC10539700:
These are yes or no findings as the source states them, for the method shown. In cells and extracts the contact can be indirect. Some binding calls cover weakened binding; strength is not graded here.

By UniProt entry, the sequences of proteins in these tests, tags left out.
UniProt Q9UBN7: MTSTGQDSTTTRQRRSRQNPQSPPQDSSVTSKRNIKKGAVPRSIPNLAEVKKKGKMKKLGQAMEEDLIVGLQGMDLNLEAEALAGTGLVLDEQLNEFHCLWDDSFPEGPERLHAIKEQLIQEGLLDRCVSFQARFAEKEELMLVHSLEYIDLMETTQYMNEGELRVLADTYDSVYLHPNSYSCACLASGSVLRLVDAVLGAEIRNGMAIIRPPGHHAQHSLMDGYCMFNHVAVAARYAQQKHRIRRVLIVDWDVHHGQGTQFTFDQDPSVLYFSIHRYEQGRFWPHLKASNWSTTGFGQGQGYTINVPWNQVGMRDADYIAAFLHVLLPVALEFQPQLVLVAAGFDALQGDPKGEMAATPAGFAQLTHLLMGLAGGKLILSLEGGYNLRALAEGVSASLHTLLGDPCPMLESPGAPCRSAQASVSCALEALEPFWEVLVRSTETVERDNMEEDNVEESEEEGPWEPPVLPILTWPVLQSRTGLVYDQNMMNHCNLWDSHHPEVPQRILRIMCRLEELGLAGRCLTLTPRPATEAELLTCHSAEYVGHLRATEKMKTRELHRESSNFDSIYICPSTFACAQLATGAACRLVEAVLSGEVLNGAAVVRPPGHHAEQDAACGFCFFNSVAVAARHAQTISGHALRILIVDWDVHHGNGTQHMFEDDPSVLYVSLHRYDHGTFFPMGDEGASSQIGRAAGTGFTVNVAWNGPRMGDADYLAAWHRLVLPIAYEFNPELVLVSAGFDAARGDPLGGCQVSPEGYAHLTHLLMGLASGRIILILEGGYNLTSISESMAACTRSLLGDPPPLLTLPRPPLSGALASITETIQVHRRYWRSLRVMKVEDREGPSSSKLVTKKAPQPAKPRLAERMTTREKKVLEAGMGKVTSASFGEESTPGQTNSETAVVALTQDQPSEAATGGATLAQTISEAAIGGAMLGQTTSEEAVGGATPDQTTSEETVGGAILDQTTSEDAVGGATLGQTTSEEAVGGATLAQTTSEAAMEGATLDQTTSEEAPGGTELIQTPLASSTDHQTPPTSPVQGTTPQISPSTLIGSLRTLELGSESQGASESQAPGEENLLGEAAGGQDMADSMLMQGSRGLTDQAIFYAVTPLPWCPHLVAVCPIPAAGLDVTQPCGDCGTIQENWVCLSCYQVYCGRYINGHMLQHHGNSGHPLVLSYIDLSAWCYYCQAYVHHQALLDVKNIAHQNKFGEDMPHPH
UniProt P08238: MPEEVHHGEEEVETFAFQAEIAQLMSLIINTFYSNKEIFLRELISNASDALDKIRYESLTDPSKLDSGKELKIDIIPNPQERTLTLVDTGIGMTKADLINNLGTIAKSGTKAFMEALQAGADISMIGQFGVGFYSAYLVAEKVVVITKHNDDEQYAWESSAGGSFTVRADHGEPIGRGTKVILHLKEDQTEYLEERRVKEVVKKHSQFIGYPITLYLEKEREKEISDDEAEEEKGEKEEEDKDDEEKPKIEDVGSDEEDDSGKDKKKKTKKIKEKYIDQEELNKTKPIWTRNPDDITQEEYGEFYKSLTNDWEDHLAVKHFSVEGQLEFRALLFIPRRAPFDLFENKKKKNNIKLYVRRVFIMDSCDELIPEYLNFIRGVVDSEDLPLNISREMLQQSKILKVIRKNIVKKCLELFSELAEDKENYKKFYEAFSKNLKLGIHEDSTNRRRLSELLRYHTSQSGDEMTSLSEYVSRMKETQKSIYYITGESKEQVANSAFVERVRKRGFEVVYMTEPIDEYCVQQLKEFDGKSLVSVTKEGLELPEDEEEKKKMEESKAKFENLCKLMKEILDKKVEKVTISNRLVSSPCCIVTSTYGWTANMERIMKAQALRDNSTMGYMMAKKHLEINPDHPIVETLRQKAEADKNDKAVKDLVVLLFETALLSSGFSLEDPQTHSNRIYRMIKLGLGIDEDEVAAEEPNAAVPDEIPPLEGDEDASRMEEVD

Target: HDAC6 expressed from the plasmid HDAC6 (gift) in HEK293T cells (UniProt Q9UBN7)
Assay: co-IP; HEK293T cells co-transfected with plasmids for HDAC6 and HA-HSP90 AA1 or HA-HSP90 AB1, with or without heat shock at 43°C for 1 h; detected by WB

| Substance | binding |
| --- | --- |
| HA-HSP90 AA1 (from UniProt P07900 1-732) | binds |
| HA-HSP90 AB1 (from UniProt P08238 1-724) | binds |
